Laboratory results from the supplement of paper PMC4604168 (melanoma cell lines).
The list shows a part of the results. Repeats are few or missing, and single values can be far off.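 The apoptosis fraction was the count of cleaved-PARP antibody-stained nuclei relative to all DNA-stained nuclei, imaged in 1,536-well plates. Screening doses were set so most cells survived, and baseline and induced cleaved-PARP levels vary greatly across cell lines.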

What was measured:
Assay in all cases: cleaved PARP positive nuclei fraction relative to DMSO control; melanoma cells; higher = more apoptosis
Details in all cases: library dose: low library concentration; 72 h
501Mel = tested on: 501Mel
A101D = tested on: A101D
A2058 = tested on: A2058
C32 = tested on: C32
CBRC008 = tested on: CBRC008 (line from a melanoma biopsy)
CBRC014 = tested on: CBRC014 (line from a melanoma biopsy)
CBRC016 = tested on: CBRC016 (line from a melanoma biopsy)
CBRC017 = tested on: CBRC017 (line from a melanoma biopsy)
COLO792 = tested on: COLO792
COLO800 = tested on: COLO800
COLO829 = tested on: COLO829
G361 = tested on: G361
IPC-298 = tested on: IPC-298
IST-MEL1 = tested on: IST-MEL1
LB2518-MEL = tested on: LB2518-MEL
LOXIMVI = tested on: LOXIMVI

SMILES	cleaved PARP positive nuclei fraction (501Mel) [%]	cleaved PARP positive nuclei fraction (A101D) [%]	cleaved PARP positive nuclei fraction (A2058) [%]	cleaved PARP positive nuclei fraction (C32) [%]	cleaved PARP positive nuclei fraction (CBRC008) [%]	cleaved PARP positive nuclei fraction (CBRC014) [%]	cleaved PARP positive nuclei fraction (CBRC016) [%]	cleaved PARP positive nuclei fraction (CBRC017) [%]	cleaved PARP positive nuclei fraction (COLO792) [%]	cleaved PARP positive nuclei fraction (COLO800) [%]	cleaved PARP positive nuclei fraction (COLO829) [%]	cleaved PARP positive nuclei fraction (G361) [%]	cleaved PARP positive nuclei fraction (IPC-298) [%]	cleaved PARP positive nuclei fraction (IST-MEL1) [%]	cleaved PARP positive nuclei fraction (LB2518-MEL) [%]	cleaved PARP positive nuclei fraction (LOXIMVI) [%]
Nc1ccn([C@@H]2O[C@H](CO)[C@@H](O)C2(F)F)c(=O)n1 [gemcitabine] + COc1ccc2c(c1)CCC1C2CCC2(C)C(NCCCCCCN3C(=O)C=CC3=O)CCC12 [U73122] (first compound 0.0004 µM, partner dose 0.4 µM)	63.6	21.8	27.8	335	86.9	202	209	156	113	53	199	88.4	56.1	192	137	57.1
Nc1nc(F)nc2c1ncn2[C@@H]1O[C@H](CO)[C@@H](O)[C@@H]1O [fludarabine] + O=C(Nc1ccccc1)c1cc([N+](=O)[O-])ccc1Cl [GW9662] (first compound 0.2 µM, partner dose 2 µM)	2470	38.4	23	381	126	82.9	66.4	113	47.6	30.8	48.2	68.6	152	86.8	75	181
CNC(=O)c1cc(Oc2ccc(NC(=O)Nc3ccc(Cl)c(C(F)(F)F)c3)cc2)ccn1 [sorafenib] + O=S(=O)(c1ccccc1)N(CC(F)(F)F)c1ccc(C(O)(C(F)(F)F)C(F)(F)F)cc1 [T0901317] (first compound 0.4 µM, partner dose 1.4 µM)	64.8	14.4	40.2	37.8	59.2	78.8	34.4	93.8	177	63.6	73.6	88	152	42.4	59.3	225
Nc1ncn([C@H]2C[C@H](O)[C@@H](CO)O2)c(=O)n1 [decitabine] + N#Cc1c(O)c2c(-c3ccc(-c4ccccc4O)cc3)csc2[nH]c1=O [A769662] (first compound 0.1 µM, partner dose 2 µM)	66.5	68.1	161	69.5	70.9	548	71.2	134	119	97.9	305	247	195	145	87	86.9
CS(=O)(=O)CCNCc1ccc(-c2ccc3ncnc(Nc4ccc(OCc5cccc(F)c5)c(Cl)c4)c3c2)o1 [lapatinib] + Cn1cc(/C=C2\C(=O)Nc3cccnc32)c2ccccc21 [GW441756] (first compound 0.8 µM, partner dose 0.4 µM)	71.2	13.1	74.8	62.9	409	192	34.7	95.7	77.2	105	34	88.3	92.8	181	64.9	80.3
Cn1c(=O)n(-c2ccc(C(C)(C)C#N)cc2)c2c3cc(-c4cnc5ccccc5c4)ccc3ncc21 + COC(=O)c1sccc1S(=O)(=O)Nc1ccc(Nc2ccccc2)cc1OC [GSK0660] (first compound 0.004 µM, partner dose 1 µM)	73.5	21.1	43.3	144	46.6	101	58.3	102	137	134	267	124	384	81.1	61.6	39
CCCS(=O)(=O)Nc1ccc(F)c(C(=O)c2c[nH]c3ncc(Cl)cc23)c1F + N#Cc1c(O)c2c(-c3ccc(-c4ccccc4O)cc3)csc2[nH]c1=O [A769662] (first compound 0.08 µM, partner dose 2 µM)	208	38.9	99.4	370	62.3	114	54.3	71.3	43.7	99.2	120	77.8	398	146	67.6	59.7
C=C(c1ccc(C(=O)O)cc1)c1cc2c(cc1C)C(C)(C)CCC2(C)C [Bexarotene] + CC(C)CCN1c2nc(Nc3cc(F)c(O)c(F)c3)ncc2N(C)C(=O)C1C [BID1870] (first compound 2 µM, partner dose 0.2 µM)	31.4	14.5	63.6	39.3	192	141	154	130	113	67.6	113	152	104	118	68.4	48
